Assay results: paper doi:10.1101/2023.11.16.567405

What was measured:
Experiment in all cases: two-hybrid
[1] = biological target: T1, MamF (BACTH fusion) (Magnetospirillum gryphiswaldense MSR-1) (UniProt Q6NE74)
T1 sequence: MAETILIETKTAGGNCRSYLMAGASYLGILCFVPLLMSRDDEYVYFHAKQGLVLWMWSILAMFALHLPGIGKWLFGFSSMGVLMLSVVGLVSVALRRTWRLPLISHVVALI

[2] = biological target: T2, MmsF (BACTH fusion) (Magnetospirillum gryphiswaldense MSR-1) (UniProt A4U547)
T2 sequence: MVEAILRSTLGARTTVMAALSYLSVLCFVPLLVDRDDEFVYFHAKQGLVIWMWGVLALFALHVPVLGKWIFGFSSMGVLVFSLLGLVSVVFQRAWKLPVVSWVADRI

[3] = biological target: MmxF (BACTH fusion) (Magnetospirillum gryphiswaldense MSR-1) (UniProt V6F1W7)

MamJ C-terminal domain (BACTH fusion) (from UniProt V6F519) (domain or fragment)
binding [1]: no binding
binding [2]: binds
binding [3]: binds

Results are given in words; binding and its absence hold for the method and conditions named. For part of these data: A result given as binding can be weak or reduced; the word gives no strength. For part of these data: Sequences can lack the tags named with a protein.
